Experimental data from doi:10.1101/2021.02.20.432055.
No constants are given. Whether binding was seen depends on the method and setting. Binding seen in cells or lysates may run through a third protein. Some binding calls cover weakened binding; strength is not graded here. Sequences can lack the tags named with a protein.

Target: T1, CTCF (human (endogenous in HCT116)) (UniProt P49711)
T1 sequence: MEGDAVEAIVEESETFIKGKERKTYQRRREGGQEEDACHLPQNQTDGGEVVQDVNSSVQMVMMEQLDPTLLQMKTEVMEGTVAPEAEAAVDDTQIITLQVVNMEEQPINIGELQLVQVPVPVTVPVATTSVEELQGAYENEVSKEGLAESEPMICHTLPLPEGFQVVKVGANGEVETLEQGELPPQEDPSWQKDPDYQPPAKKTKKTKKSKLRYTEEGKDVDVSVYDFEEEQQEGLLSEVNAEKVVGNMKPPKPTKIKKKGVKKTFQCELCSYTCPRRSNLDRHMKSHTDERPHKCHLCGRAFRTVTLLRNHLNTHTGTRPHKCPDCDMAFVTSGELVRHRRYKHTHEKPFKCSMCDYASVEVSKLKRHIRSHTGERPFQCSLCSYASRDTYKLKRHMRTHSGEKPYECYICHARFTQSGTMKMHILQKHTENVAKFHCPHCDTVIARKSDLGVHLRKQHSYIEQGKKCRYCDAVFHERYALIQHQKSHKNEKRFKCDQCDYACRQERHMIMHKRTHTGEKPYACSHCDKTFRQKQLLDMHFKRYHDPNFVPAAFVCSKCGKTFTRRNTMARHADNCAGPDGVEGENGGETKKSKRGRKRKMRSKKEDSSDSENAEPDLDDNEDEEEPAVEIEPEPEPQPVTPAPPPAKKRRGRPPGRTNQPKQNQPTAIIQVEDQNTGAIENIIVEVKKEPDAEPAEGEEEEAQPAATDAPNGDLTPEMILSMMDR
Experiment: co-IP

B1: SA2 (Stromalin Antigen 2, STAG2) (protein, UniProt Q8N3U4 1-1231)
chain: MIAAPEIPTDFNLLQESETHFSSDTDFEDIEGKNQKQGKGKTCKKGKKGPAEKGKGGNGGGKPPSGPNRMNGHHQQNGVENMMLFEVVKMGKSAMQSVVDDWIESYKHDRDIALLDLINFFIQCSGCKGVVTAEMFRHMQNSEIIRKMTEEFDEDSGDYPLTMAGPQWKKFKSSFCEFIGVLVRQCQYSIIYDEYMMDTVISLLTGLSDSQVRAFRHTSTLAAMKLMTALVNVALNLSINMDNTQRQYEAERNKMIGKRANERLELLLQKRKELQENQDEIENMMNAIFKGVFVHRYRDAIAEIRAICIEEIGIWMKMYSDAFLNDSYLKYVGWTMHDKQGEVRLKCLTALQGLYYNKELNSKLELFTSRFKDRIVSMTLDKEYDVAVQAIKLLTLVLQSSEEVLTAEDCENVYHLVYSAHRPVAVAAGEFLYKKLFSRRDPEEDGMMKRRGRQGPNANLVKTLVFFFLESELHEHAAYLVDSMWDCATELLKDWECMNSLLLEEPLSGEEALTDRQESALIEIMLCTIRQAAECHPPVGRGTGKRVLTAKEKKTQLDDRTKITELFAVALPQLLAKYSVDAEKVTNLLQLPQYFDLEIYTTGRLEKHLDALLRQIRNIVEKHTDTDVLEACSKTYHALCNEEFTIFNRVDISRSQLIDELADKFNRLLEDFLQEGEEPDEDDAYQVLSTLKRITAFHNAHDLSKWDLFACNYKLLKTGIENGDMPEQIVIHALQCTHYVILWQLAKITESSSTKEDLLRLKKQMRVFCQICQHYLTNVNTTVKEQAFTILCDILMIFSHQIMSGGRDMLEPLVYTPDSSLQSELLSFILDHVFIEQDDDNNSADGQQEDEASKIEALHKRRNLLAAFCKLIVYTVVEMNTAADIFKQYMKYYNDYGDIIKETMSKTRQIDKIQCAKTLILSLQQLFNEMIQENGYNFDRSSSTFSGIKELARRFALTFGLDQLKTREAIAMLHKDGIEFAFKEPNPQGESHPPLNLAFLDILSEFSSKLLRQDKRTVYVYLEKFMTFQMSLRREDVWLPLMSYRNSLLAGGDDDTMSVISGISSRGSTVRSKKSKPSTGKRKVVEGMQLSLTEESSSSDSMWLSREQTLHTPVMMQTPQLTSTIMREPKRLRPEDSFMSVYPMQTEHHQTPLDYNRRGTSLMEDDEEPIVEDVMMSSEGRIEDLNEGMDFDTMDIDLPPSKNRRERTELKPDFFDPASIMDESVLGVSMF
For B1, the binding was “binds”.
